Results published in PMC8578705 (Cell Reports, 2021).

Columns and labels:
[1] = test system: IP3Rs (wild-type HEK cells); test: Ca2+ release from permeabilized wild-type HEK cells; assay type: cell-based, Homo sapiens
Description: Incubation of cells with the acetoxymethylester (AM) of Mag-fluo 4 traps low-affinity forms of the indicator ( KdCa = 1.15 mM measured in situ) within the ER. Fluorescence, which is approximately linearly related to ER free [Ca^2+] (since [Ca^2+]ER < KdCa ), can then be used, without further calibration, to reliably report free [Ca^2+] within the ER lumen ([Rossi and Taylor, 2020]). The ER of DT40 or HEK293 cells was loaded with indicator by incubating cells with Mag-fluo 4 AM (20 μM, 60 min, 22°C) in HEPES-buffered saline (HBS: 135 mM NaCl, 5.9 mM KCl, 11.6 mM HEPES, 1.5 mM CaCl2, 11.5 mM glucose, 1.2 mM MgCl2, pH 7.3) as described ([Rossi et al., 2009]). After washing and permeabilization with saponin (10 μg/mL, 37°C, 2-3 min) in Ca^2+-free cytosol-like medium (Ca^2+-free CLM), cells were centrifuged (650 × g, 2 min) and resuspended in Mg^2+-free CLM supplemented with CaCl2 to give a final free [Ca^2+] of 220 nM after addition of 1.5 mM MgATP. Ca^2+-free CLM comprised: 20 mM NaCl, 140 mM KCl, 1 mM EGTA, 20 mM PIPES, 2 mM MgCl2, pH 7.0. […]
For equilibrium binding and concentration-effect relationships, results from each experiment were fitted to Hill equations (PRISM) from which pIC50 (-log of half-maximal inhibitory concentration) or pEC50 (-log of half-maximally effective concentration) values were determined. KDligand was calculated from: KDligand = IC50ligand - [^3H-IP3] /KDIP3 . […]

[2] = test system: IBC and NT of IP3R1; test: Difference in ligand affinities for the IBC and NT (ΔΔG); set-up: species or system rat; conditions: difference in ΔG for binding to the IBC and NT

Compound	h (Hill coefficient) [1]	ΔΔG (ΔGIBC - ΔGNT) [2] [kcal/mol]
O=C(NCCCN(CCCCN(CCCNC(=O)OCc1ccccc1)C(=O)OCc1ccccc1)C(=O)OCc1ccccc1)NCCO[C@@H]1[C@H](O)[C@@H](OP(=O)(O)O)[C@H](OP(=O)(O)O)[C@@H](O)[C@@H]1OP(=O)(O)O [Compound 2, 2-O-(1,5,10-tris(benzyloxycarbonyl)-15-oxo-1,5,10,14,16-pentaazaoctadecan-18-yl)-1D-myo-inositol 1,4,5-trisphosphate]	1.1 ± 0.3	-0.908
O=P(O)(O)O[C@@H]1[C@H](O)[C@H](O)[C@@H](OP(=O)(O)O)[C@H](OP(=O)(O)O)[C@H]1O [IP3, D-myo-inositol 1,4,5-trisphosphate]	1.0 ± 0.1	-1.24
